Record: PubChem BioAssay AID504774 (Drosophila RNAi Screening Center, 2011)

- Purpose: 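Genes required for cells to withstand methyl methanesulphonate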 (primary screen)
- Cell system: Drosophila Kc167 cells
- Knock-down reagent: long dsRNA against Drosophila genes, about 0.25 µg dsRNA per well
- Time to read-out: about 6 days: 3 days knock-down, then 3 days with or without MMS
- Conditions: methyl methanesulphonate 0.004% (w/v) for 3 days after knock-down
- Measurement: 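ATP-dependent luminescence as a measure of live cells in MMS-exposed wells, quantile normalised within each plate, with replicate values also given as a mean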
- Scale: mean viability with MMS: higher = more surviving cells after MMS
The deposit covers about 23,000 reagents; this is a random part of those with a known target gene and a result. 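Values are quantile-normalised luminescence on an arbitrary scale; higher means more cells surviving MMS.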 The numbers tell different reagents against one gene apart. Not all columns of the deposit are shown. No sequences are given here.

lky (GeneID 33006) → mean viability with MMS: 3.50e6
Lk (GeneID 47746) → mean viability with MMS: 3.69e6
MFS12 (GeneID 35745) → mean viability with MMS: 3.54e6
CG33272 (GeneID 2768958) → mean viability with MMS: 3.39e6
Tsp96F (GeneID 43127) → mean viability with MMS: 3.68e6
CG17738 (GeneID 41490) → mean viability with MMS: 3.52e6
mRpS11 (GeneID 42061) → mean viability with MMS: 3.76e6
Phax (GeneID 35926) → mean viability with MMS: 3.54e6
Taf9 (GeneID 32762) → mean viability with MMS: 3.49e6
Phb2 (GeneID 46038) → mean viability with MMS: 1.72e6
Cpr35B (GeneID 34846) #1 → mean viability with MMS: 3.64e6
Cpr35B (GeneID 34846) #2 → mean viability with MMS: 3.78e6
Galk (GeneID 39031) → mean viability with MMS: 3.59e6
pns (GeneID 38178) → mean viability with MMS: 3.56e6
CG8924 (GeneID 32557) #1 → mean viability with MMS: 3.21e6
CG8924 (GeneID 32557) #2 → mean viability with MMS: 3.52e6
eyg (GeneID 39419) #1 → mean viability with MMS: 2.82e6
eyg (GeneID 39419) #2 → mean viability with MMS: 3.54e6
CG2116 (GeneID 31735) → mean viability with MMS: 3.67e6
Asap (GeneID 35783) #1 → mean viability with MMS: 3.68e6
Asap (GeneID 35783) #2 → mean viability with MMS: 3.67e6
CG9757 (GeneID 41662) #1 → mean viability with MMS: 3.60e6
CG9757 (GeneID 41662) #2 → mean viability with MMS: 3.42e6
CG43338 (GeneID 35117) → mean viability with MMS: 3.80e6
CG34026 (GeneID 3885569) → mean viability with MMS: 3.49e6
Rap2l (GeneID 37850) → mean viability with MMS: 3.64e6
CG31741 (GeneID 35079) → mean viability with MMS: 3.41e6
Chd1 (GeneID 33505) → mean viability with MMS: 3.56e6
CG33096 (GeneID 326251) → mean viability with MMS: 3.40e6
CG15258 (GeneID 34904) → mean viability with MMS: 3.57e6
Rsod (GeneID 43586) → mean viability with MMS: 3.49e6
CG31510 (GeneID 326146) → mean viability with MMS: 3.50e6
Polr1H (GeneID 42563) → mean viability with MMS: 3.48e6
CG34024 (retired record) (GeneID 3885580) → mean viability with MMS: 3.51e6
Lrrk (GeneID 42447) #1 → mean viability with MMS: 3.81e6
Lrrk (GeneID 42447) #2 → mean viability with MMS: 3.51e6
CG34375 (GeneID 42715) #1 → mean viability with MMS: 3.68e6
CG34375 (GeneID 42715) #2 → mean viability with MMS: 3.61e6
CG14183 (GeneID 40192) → mean viability with MMS: 3.75e6
CG14669 (GeneID 40652) #1 → mean viability with MMS: 3.11e6
CG14669 (GeneID 40652) #2 → mean viability with MMS: 3.56e6
CG14669 (GeneID 40652) #3 → mean viability with MMS: 3.63e6
CG14669 (GeneID 40652) #4 → mean viability with MMS: 3.68e6
ccb (GeneID 33096) → mean viability with MMS: 3.48e6
lin (GeneID 45325) → mean viability with MMS: 3.59e6
